PubChem BioAssay AID504786 – Drosophila RNAi Screening Center | 2011

Test: 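Fly genes required for HIF-dependent transcription when hypoxia is mimicked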 (primary screen)
Cells: Drosophila S2 cells with a stable HIF luciferase reporter
Reagents: long dsRNA against Drosophila genes, about 0.2 µg dsRNA per well of a 384-well plate
Duration: three days of knock-down, then 20 h of DFO before reading
Conditions: desferrioxamine (DFO) at 100 µM, an iron chelator that mimics hypoxia, for 20 h
Detection: 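HIF reporter luminescence in cells given 100 µM DFO for 20 h, using the mouse ldh-a hypoxia-response element, scored as per-plate z-scores; higher means greater loss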
Direction: z-score: higher = stronger loss of HIF reporter signal
The deposit covers about 21,000 reagents; shown is an unselected part of those that have a named target and a result. 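Primary screen; positive scores mean lost reporter signal, so the sign may be inverted from the usual convention.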 Further read-outs or replicates are left out here.

CG7409 (GeneID 38870) [DRSC10842]
- z-score, replicate 1: -0.2

CG31145 (GeneID 42784) [DRSC13634]
- z-score, replicate 1: 0

CG31145 (GeneID 42784) [DRSC14206]
- z-score, replicate 1: 1.3

CG31145 (GeneID 42784) [DRSC14670]
- z-score, replicate 1: 4.6

CG31145 (GeneID 42784) [DRSC14671]
- z-score, replicate 1: 0.5

CG12551 (retired record) (GeneID 35518) [DRSC04857]
- z-score, replicate 1: -0.3

CG12551 (retired record) (GeneID 35518) [DRSC04864]
- z-score, replicate 1: -0.1

Dim1 (GeneID 33645) [DRSC00563]
- z-score, replicate 1: 2.6

deltaCOP (GeneID 45250) [DRSC18760]
- z-score, replicate 1: -0.3

CG2955 (GeneID 33622) [DRSC00552]
- z-score, replicate 1: -0.3

Sps2 (GeneID 34397) [DRSC03441]
- z-score, replicate 1: -0.2

psq (GeneID 36118) [DRSC07668]
- z-score, replicate 1: 1.5

mip120 (GeneID 36499) [DRSC06960]
- z-score, replicate 1: 0.4

CG15699 (retired record) (GeneID 36756) [DRSC06571]
- z-score, replicate 1: -0.3

Cul4 (GeneID 35780) [DRSC07243]
- z-score, replicate 1: 1

CG7065 (GeneID 31844) [DRSC18420]
- z-score, replicate 1: 5.7

Obp50d (GeneID 246436) [DRSC05483]
- z-score, replicate 1: -0.1

luna (GeneID 2768719) [DRSC05253]
- z-score, replicate 1: -0.2

luna (GeneID 2768719) [DRSC06663]
- z-score, replicate 1: 3.1

luna (GeneID 2768719) [DRSC07336]
- z-score, replicate 1: -0.1

CG3337 (GeneID 42519) [DRSC15478]
- z-score, replicate 1: -0.4

6 entries already listed, ordered by “z-score, replicate 1”, high to low.
CG31145 (GeneID 42784) [DRSC14670]
- z-score, replicate 1: 4.6

CG31145 (GeneID 42784) [DRSC14206]
- z-score, replicate 1: 1.3

CG31145 (GeneID 42784) [DRSC14671]
- z-score, replicate 1: 0.5

CG31145 (GeneID 42784) [DRSC13634]
- z-score, replicate 1: 0

CG7409 (GeneID 38870) [DRSC10842]
- z-score, replicate 1: -0.2

CG12551 (retired record) (GeneID 35518) [DRSC04857]
- z-score, replicate 1: -0.3

More results follow.
salm (GeneID 34569) [DRSC03606]
- z-score, replicate 1: -0.2

cry (GeneID 42305) [DRSC16928]
- z-score, replicate 1: -0.8

CG16710 (GeneID 42790) [DRSC15136]
- z-score, replicate 1: 0.1

Sgsh (GeneID 42266) [DRSC14771]
- z-score, replicate 1: 0.1

Pp1-87B (GeneID 49260) [DRSC16794]
- z-score, replicate 1: 1.1

Tbca (GeneID 43737) [DRSC15395]
- z-score, replicate 1: -0.1

JTBR (GeneID 38235) [DRSC08667]
- z-score, replicate 1: -0.3

CG14332 (GeneID 42098) [DRSC14811]
- z-score, replicate 1: -0.3

CG15278 (GeneID 34865) [DRSC02481]
- z-score, replicate 1: 6.5

snama (GeneID 37857) [DRSC04049]
- z-score, replicate 1: -0.6

CG17574 (GeneID 36415) [DRSC06681]
- z-score, replicate 1: -0.3

Optix (GeneID 44108) [DRSC05078]
- z-score, replicate 1: -0.3

Optix (GeneID 44108) [DRSC07484]
- z-score, replicate 1: -0.3

Cyp317a1 (GeneID 36667) [DRSC07366]
- z-score, replicate 1: -0.1

CG8541 (GeneID 38838) [DRSC10989]
- z-score, replicate 1: 0

Uros2 (GeneID 41908) [DRSC16505]
- z-score, replicate 1: -0.1

E(spl)m8-HLH (GeneID 43161) [DRSC16654]
- z-score, replicate 1: -0.5

CG9503 (GeneID 32424) [DRSC20186]
- z-score, replicate 1: -0.4

CG15553 (GeneID 43677) [DRSC15091]
- z-score, replicate 1: -0.2
